Results are given in words; binding and its absence hold for the method and conditions named. Binding seen in cells or lysates may run through a third protein. Some results given as binding are weak or reduced against the parent protein; the word gives no strength.

By UniProt entry, the sequences of proteins in these tests, tags left out.
UniProt O14867: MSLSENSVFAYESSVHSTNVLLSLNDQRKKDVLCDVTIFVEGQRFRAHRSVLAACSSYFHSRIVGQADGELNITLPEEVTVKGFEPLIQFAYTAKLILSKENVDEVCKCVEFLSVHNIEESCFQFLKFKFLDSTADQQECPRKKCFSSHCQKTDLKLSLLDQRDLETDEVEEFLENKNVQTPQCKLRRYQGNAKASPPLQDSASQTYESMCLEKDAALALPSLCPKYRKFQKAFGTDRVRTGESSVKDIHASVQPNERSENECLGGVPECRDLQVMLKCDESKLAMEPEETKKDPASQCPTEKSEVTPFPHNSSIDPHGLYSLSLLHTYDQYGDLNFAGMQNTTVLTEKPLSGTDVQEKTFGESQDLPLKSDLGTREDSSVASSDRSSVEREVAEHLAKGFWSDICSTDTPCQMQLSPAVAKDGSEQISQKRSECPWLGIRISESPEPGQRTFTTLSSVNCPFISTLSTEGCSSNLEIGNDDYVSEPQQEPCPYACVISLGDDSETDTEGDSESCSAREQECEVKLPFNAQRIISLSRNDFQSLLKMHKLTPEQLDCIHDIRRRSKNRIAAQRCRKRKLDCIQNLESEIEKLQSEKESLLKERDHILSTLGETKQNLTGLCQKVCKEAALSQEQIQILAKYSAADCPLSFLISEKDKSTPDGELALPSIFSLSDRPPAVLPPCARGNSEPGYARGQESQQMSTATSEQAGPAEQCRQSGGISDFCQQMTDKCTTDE
UniProt O96019: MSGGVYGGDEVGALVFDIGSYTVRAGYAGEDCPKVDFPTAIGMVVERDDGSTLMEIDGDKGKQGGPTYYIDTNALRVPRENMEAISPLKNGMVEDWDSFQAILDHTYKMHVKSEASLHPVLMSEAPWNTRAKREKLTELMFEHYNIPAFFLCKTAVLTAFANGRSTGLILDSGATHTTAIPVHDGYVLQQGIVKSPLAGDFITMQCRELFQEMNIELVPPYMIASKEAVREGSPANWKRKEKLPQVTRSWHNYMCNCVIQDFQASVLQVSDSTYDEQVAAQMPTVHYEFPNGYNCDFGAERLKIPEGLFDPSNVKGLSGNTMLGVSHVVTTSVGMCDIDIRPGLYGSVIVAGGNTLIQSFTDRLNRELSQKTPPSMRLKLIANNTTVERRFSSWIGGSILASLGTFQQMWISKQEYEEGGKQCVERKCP

The assay concerns the target BTB and CNC homology 1 (BACH1) (human (endogenous in KYSE150 and KYSE450)) (UniProt O14867). Put plainly: co-IP; nuclear lysates (500 ug) of KYSE150 and KYSE450 cells incubated overnight at 4 C with 2 ug anti-BAF53A or anti-BACH1 antibody, protein A/G magnetic beads, western blot.

Regarding “BRG1-associated factor 53A (BAF53A) (from UniProt O96019 1-429)”, the binding entry is recorded as “binds”.

Values taken from PMC12499559.
